The supplement of paper PMC8728848
Some of the results follow.

Columns and labels:
Assay in all cases: glycan array binding signal (z-score within array); higher = stronger binding
Details in all cases: glycan notation: IUPAC condensed, linker removed
[1] = biological target: Neu5Ac(a2-3)Gal(b1-3)[Fuc(a1-4)]GlcNAc
Summary of the method: (§1)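 The Consortium for Functional Glycomics database supplied 3228 glycan arrays, of which those lacking an available protein sequence were dropped. The binding signal, a within-array Z-score, was averaged across arrays of the same protein sequence and across linkers. Negative scores can be read as non-binding.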

[2] = biological target: Neu5Ac(a2-3)Gal(b1-3)[Fuc(a1-4)]GlcNAc(b1-3)Gal(b1-3)[Fuc(a1-4)]GlcNAc
Summary of the method: as §1

[3] = biological target: Neu5Ac(a2-3)Gal(b1-3)[Fuc(a1-4)]GlcNAc(b1-3)Gal(b1-4)[Fuc(a1-3)]GlcNAc
Summary of the method: as §1

[4] = biological target: Neu5Ac(a2-3)Gal(b1-3)[GlcNAc(b1-6)]GalNAc
Summary of the method: as §1

[5] = biological target: Neu5Ac(a2-3)Gal(b1-3)[Neu5Ac(a2-6)]GalNAc
Summary of the method: as §1

[6] = biological target: Neu5Ac(a2-3)Gal(b1-3)[Neu5Ac(a2-6)]GlcNAc(b1-3)[Fuc(a1-3)[Gal(b1-4)]GlcNAc(b1-6)]Gal(b1-4)Glc
Summary of the method: as §1

[7] = biological target: Neu5Ac(a2-3)Gal(b1-3)]Neu5Ac(a2-3)Gal(b1-4)]GlcNAc
Summary of the method: as §1

Neu5Ac(a2-3)Gal(b1-4)Glc = biological target: Neu5Ac(a2-3)Gal(b1-4)Glc
Summary of the method: as §1

[8] = biological target: Neu5Ac(a2-3)Gal(b1-4)GlcNAc
Summary of the method: as §1

[9] = biological target: Neu5Ac(a2-3)Gal(b1-4)GlcNAc(b1-2)Man
Summary of the method: as §1

[10] = biological target: Neu5Ac(a2-3)Gal(b1-4)GlcNAc(b1-2)Man(a1-3)[GlcNAc(b1-4)][Neu5Ac(a2-3)Gal(b1-4)GlcNAc(b1-2)Man(a1-6)]Man(b1-4)GlcNAc(b1-4)GlcNAc
Summary of the method: as §1

[11] = biological target: Neu5Ac(a2-3)Gal(b1-4)GlcNAc(b1-2)Man(a1-3)[Neu5Ac(a2-3)Gal(b1-4)GlcNAc(b1-2)Man(a1-6)]Man(b1-4)GlcNAc(b1-4)GlcNAc
Summary of the method: as §1

[12] = biological target: Neu5Ac(a2-3)Gal(b1-4)GlcNAc(b1-2)Man(a1-3)[Neu5Ac(a2-3)Gal(b1-4)GlcNAc(b1-2)Man(a1-6)]Man(b1-4)GlcNAc(b1-4)[Fuc(a1-6)]GlcNAc
Summary of the method: as §1

[13] = biological target: Neu5Ac(a2-3)Gal(b1-4)GlcNAc(b1-2)Man(a1-3)[Neu5Ac(a2-6)Gal(b1-4)GlcNAc(b1-2)Man(a1-6)]Man(b1-4)GlcNAc(b1-4)GlcNAc
Summary of the method: as §1

[14] = biological target: Neu5Ac(a2-3)Gal(b1-4)GlcNAc(b1-2)[Neu5Ac(a2-3)Gal(b1-4)GlcNAc(b1-4)]Man(a1-3)[GlcNAc(b1-4)][Neu5Ac(a2-3)Gal(b1-4)GlcNAc(b1-2)[Neu5Ac(a2-3)Gal(b1-4)GlcNAc(b1-6)]Man(a1-6)]Man(b1-4)GlcNAc(b1-4)GlcNAc
Summary of the method: as §1

[15] = biological target: Neu5Ac(a2-3)Gal(b1-4)GlcNAc(b1-2)[Neu5Ac(a2-3)Gal(b1-4)GlcNAc(b1-4)]Man(a1-3)[GlcNAc(b1-4)][Neu5Ac(a2-3)Gal(b1-4)GlcNAc(b1-4)Man(a1-6)]Man(b1-4)GlcNAc(b1-4)GlcNAc
Summary of the method: as §1

[16] = biological target: Neu5Ac(a2-3)Gal(b1-4)GlcNAc(b1-2)[Neu5Ac(a2-3)Gal(b1-4)GlcNAc(b1-6)]Man(a1-6)[Neu5Ac(a2-3)Gal(b1-4)GlcNAc(b1-2)Man(a1-3)]Man(b1-4)GlcNAc(b1-4)GlcNAc
Summary of the method: as §1

[17] = biological target: Neu5Ac(a2-3)Gal(b1-4)GlcNAc(b1-2)[Neu5Ac(a2-3)Gal(b1-4)GlcNAc(b1-6)]Man(a1-6)[Neu5Ac(a2-3)Gal(b1-4)GlcNAc(b1-2)Man(a1-3)][GlcNAc(b1-4)]Man(b1-4)GlcNAc(b1-4)GlcNAc
Summary of the method: as §1

[18] = biological target: Neu5Ac(a2-3)Gal(b1-4)GlcNAc(b1-3)Gal
Summary of the method: as §1

[19] = biological target: Neu5Ac(a2-3)Gal(b1-4)GlcNAc(b1-3)Gal(b1-3)GlcNAc
Summary of the method: as §1

[20] = biological target: Neu5Ac(a2-3)Gal(b1-4)GlcNAc(b1-3)Gal(b1-4)GlcNAc
Summary of the method: as §1

[21] = biological target: Neu5Ac(a2-3)Gal(b1-4)GlcNAc(b1-3)Gal(b1-4)GlcNAc(b1-2)Man(a1-3)[Neu5Ac(a2-3)Gal(b1-4)GlcNAc(b1-3)Gal(b1-4)GlcNAc(b1-2)Man(a1-6)]Man(b1-4)GlcNAc(b1-4)GlcNAc
Summary of the method: as §1

B1: PX9961K-bvu-480-28-480 (Bacteroides vulgatus) (protein)
chain: NKIPTTMAFRTVTDVDNAVNGLYDLMSGSGYYGAAMFAYGDMKGDDMQSSEESGVCNTCYMFNHRPNSLNAGSLWGRPFYILREAWNILNAIAEGKIESGDEKKLNALKGETMAVIALCQFDLTRCFGYPYTKDKGASLGAPLIDHLVGTYENPPRSTVAQAYDFIIETLEEAVTLMSEEKNNGRMNKYAARALLARIYLYHDDNRKAFDLADQLIKDADTSGSYALYPHEKYVAAWSVEAKFGSESFFEIANSVDDTPGRDSWGYLLNWYGYQKGFVTQKYAEQMLADPGDVRGHLLEENKYAGKTVWWLYKLRGTDLKTAPLECNNVVLRLSEVYLIAAEAGCKLGGDAAVQGLGYLNEIVKRGNPDNEVTMADYTLDRVLDERSKELVGEGHRFFDLLRNGKTIVRKGGYHLPSVDEEVDWDFYKCVLPIPEDQFIFSPEMEQNPGYPKN
[1]
  glycan array binding signal (z-score): 0.901
[2]
  glycan array binding signal (z-score): 0.481
[3]
  glycan array binding signal (z-score): 0.153
[4]
  glycan array binding signal (z-score): -1.23
[5]
  glycan array binding signal (z-score): 0.069
[6]
  glycan array binding signal (z-score): 0.381
[7]
  glycan array binding signal (z-score): -0.858
Neu5Ac(a2-3)Gal(b1-4)Glc
  glycan array binding signal (z-score): 0.325
[8]
  glycan array binding signal (z-score): -0.351
[9]
  glycan array binding signal (z-score): -0.302
[10]
  glycan array binding signal (z-score): -0.307
[11]
  glycan array binding signal (z-score): 0.248
[12]
  glycan array binding signal (z-score): -0.197
[13]
  glycan array binding signal (z-score): -1.02
[14]
  glycan array binding signal (z-score): -0.976
[15]
  glycan array binding signal (z-score): -0.761
[16]
  glycan array binding signal (z-score): -0.187
[17]
  glycan array binding signal (z-score): 1.59
[18]
  glycan array binding signal (z-score): 0.436
[19]
  glycan array binding signal (z-score): 0.56
[20]
  glycan array binding signal (z-score): -0.369
[21]
  glycan array binding signal (z-score): -0.016
